{"source": "PubChem BioAssay AID1508588 (Peter MacCallum Cancer Centre, 2020)", "aim": "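Genome-wide search for knock-downs that heighten vemurafenib action in melanoma cells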 (primary screen)", "system": "human WM266.4 melanoma cells (BRAF V600 mutant)", "reagent": "siRNA pool against human genes, 40 nM", "timing": "96 h from transfection to read-out", "conditions": "vemurafenib 300 nM (about IC25), added 48 h after transfection, for 48 h; comparison arm got DMSO vehicle only", "measurement": "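Ratios to non-targeting siRNA for cell gain, counted as DAPI nuclei after minus before drug and averaged over two replicates, and for absorbance-read medium lactate per cell; both binned into fold-change classes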", "scale": "cell gain with vemurafenib: higher = more cell gain than with non-targeting siRNA; lactate per cell with vemurafenib: higher = more lactate made per cell", "rule for the call": "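a knock-down counts as enhancing when its fold-change classes with vehicle and with vemurafenib, taken together, show a stronger drug effect on cell gain or lactate per cell; exact class pairs not stated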", "meaning of the calls": "active = enhances vemurafenib effect; inactive = no enhancement seen", "note": "Shown is one part, drawn at random, of about 18,000 reagents. Of all reagents, 790 (4.4%) were called active. 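Calls rest on a combination of fold-change classes in drug and vehicle arms, not all shown here.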 Entries without a mark were called inactive."}
{"target gene": "ANXA8 (GeneID 653145)", "cell gain with vemurafenib": 0.69, "lactate per cell with vemurafenib": 1.45}
{"target gene": "KCTD10 (GeneID 83892)", "cell gain with vemurafenib": 0.3, "lactate per cell with vemurafenib": 1.42}
{"target gene": "FBXO7 (GeneID 25793)", "cell gain with vemurafenib": 0.08, "lactate per cell with vemurafenib": 0.87}
{"target gene": "ZSCAN31 (GeneID 64288)", "cell gain with vemurafenib": 1.03, "lactate per cell with vemurafenib": 1.06}
{"target gene": "TRNP1 (GeneID 388610)", "cell gain with vemurafenib": 0.51, "lactate per cell with vemurafenib": 0.42}
{"target gene": "LHX9 (GeneID 56956)", "cell gain with vemurafenib": 0.46, "lactate per cell with vemurafenib": 0.9}
{"target gene": "CYP4V2 (GeneID 285440)", "cell gain with vemurafenib": 0.66, "lactate per cell with vemurafenib": 1.23}
{"target gene": "OGDH (GeneID 4967)", "cell gain with vemurafenib": 0.41, "lactate per cell with vemurafenib": 2.08}
{"target gene": "GATA3 (GeneID 2625)", "cell gain with vemurafenib": 0.12, "lactate per cell with vemurafenib": 2}
{"target gene": "MPZL3 (GeneID 196264)", "cell gain with vemurafenib": 0.61, "lactate per cell with vemurafenib": 1.4}
{"target gene": "DISC1 (GeneID 27185)", "cell gain with vemurafenib": 0.37, "lactate per cell with vemurafenib": 0.68}
{"target gene": "DTX2 (GeneID 113878)", "cell gain with vemurafenib": -0.01, "lactate per cell with vemurafenib": 1.25}
{"target gene": "MMP25 (GeneID 64386)", "cell gain with vemurafenib": 0.65, "lactate per cell with vemurafenib": 0.68}
{"target gene": "CYGB (GeneID 114757)", "cell gain with vemurafenib": 0.68, "lactate per cell with vemurafenib": 0.82}
{"target gene": "ARL13B (GeneID 200894)", "cell gain with vemurafenib": 0.75, "lactate per cell with vemurafenib": 0.63}
{"target gene": "ANGPT4 (GeneID 51378)", "cell gain with vemurafenib": 0.38, "lactate per cell with vemurafenib": 1.26}
{"target gene": "NMRK1 (GeneID 54981)", "cell gain with vemurafenib": 0.77, "lactate per cell with vemurafenib": 0.47}
{"target gene": "PKHD1L1 (GeneID 93035)", "cell gain with vemurafenib": 0.08, "lactate per cell with vemurafenib": 0.7}
{"target gene": "SCAI (GeneID 286205)", "cell gain with vemurafenib": 0.96, "lactate per cell with vemurafenib": 0.71}
{"target gene": "ELF4 (GeneID 2000)", "cell gain with vemurafenib": 0.67, "lactate per cell with vemurafenib": 2.35}
{"target gene": "GPR183 (GeneID 1880)", "cell gain with vemurafenib": 1.16, "lactate per cell with vemurafenib": 0.56}
{"target gene": "EPHB3 (GeneID 2049)", "cell gain with vemurafenib": 0.46, "lactate per cell with vemurafenib": 1.48}
{"target gene": "RHOU (GeneID 58480)", "cell gain with vemurafenib": 0.75, "lactate per cell with vemurafenib": 1.27}
{"target gene": "CPT1B (GeneID 1375)", "cell gain with vemurafenib": 0.79, "lactate per cell with vemurafenib": 0.71}
{"target gene": "INTS2 (GeneID 57508)", "cell gain with vemurafenib": 0.21, "lactate per cell with vemurafenib": 1.81}
{"target gene": "TIPRL (GeneID 261726)", "cell gain with vemurafenib": 0.6, "lactate per cell with vemurafenib": 2}
{"target gene": "PHIP (GeneID 55023)", "cell gain with vemurafenib": 0.81, "lactate per cell with vemurafenib": 0.4}
{"target gene": "MRPL17 (GeneID 63875)", "cell gain with vemurafenib": 0.69, "lactate per cell with vemurafenib": 0.5}
{"target gene": "LACTB2 (GeneID 51110)", "cell gain with vemurafenib": 0.52, "lactate per cell with vemurafenib": 1.12}
{"target gene": "THAP4 (GeneID 51078)", "cell gain with vemurafenib": 0.37, "lactate per cell with vemurafenib": 0.8}
{"target gene": "CMC2 (GeneID 56942)", "cell gain with vemurafenib": 0.59, "lactate per cell with vemurafenib": 0.97}
{"target gene": "PLSCR4 (GeneID 57088)", "cell gain with vemurafenib": 0.84, "lactate per cell with vemurafenib": 1.08}
{"target gene": "BPIFA3 (GeneID 128861)", "cell gain with vemurafenib": 0.98, "lactate per cell with vemurafenib": 0.83}
{"target gene": "CNPY4 (GeneID 245812)", "cell gain with vemurafenib": 0.34, "lactate per cell with vemurafenib": 2.76}
{"target gene": "EBI3 (GeneID 10148)", "cell gain with vemurafenib": 0.25, "lactate per cell with vemurafenib": 1.38}
{"target gene": "GRM8 (GeneID 2918)", "cell gain with vemurafenib": 1.05, "lactate per cell with vemurafenib": 0.84}
{"target gene": "TMEM204 (GeneID 79652)", "cell gain with vemurafenib": 0.56, "lactate per cell with vemurafenib": 0.75}
{"target gene": "PGK1 (GeneID 5230)", "cell gain with vemurafenib": 0.95, "lactate per cell with vemurafenib": 0.92}
{"target gene": "MATN2 (GeneID 4147)", "cell gain with vemurafenib": 0.13, "lactate per cell with vemurafenib": 0.3}
{"target gene": "KIF21B (GeneID 23046)", "cell gain with vemurafenib": -0.09, "lactate per cell with vemurafenib": 2.28}

7 of these entries, reformatted:
| target gene | cell gain with vemurafenib | lactate per cell with vemurafenib |
| --- | --- | --- |
| CNPY4 (GeneID 245812) | 0.34 | 2.76 |
| EBI3 (GeneID 10148) | 0.25 | 1.38 |
| GRM8 (GeneID 2918) | 1.05 | 0.84 |
| TMEM204 (GeneID 79652) | 0.56 | 0.75 |
| PGK1 (GeneID 5230) | 0.95 | 0.92 |
| MATN2 (GeneID 4147) | 0.13 | 0.3 |
| KIF21B (GeneID 23046) | -0.09 | 2.28 |
